# Laboratory results from the supplement of paper PMC12889115.
# Some of the results follow. Values are raw readings; no control value is given beside them.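 First-pass screen: polymyxin B was added at a level that permeabilizes the Salmonella outer membrane while sparing the inner membrane. DMSO wells, with and without polymyxin B, defined maximum growth. Because plates differed from one another, each plate's data were ranked separately and the compounds with the lowest OD600 were carried forward as hits.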
# System: Salmonella enterica serovar Typhimurium SL1344
# Test: bacterial growth OD600 after 18 h with compound and polymyxin B; higher = more bacterial growth (less inhibition)
# Conditions: 50 µM, Mueller-Hinton broth
Structure (SMILES),bacterial growth OD600 (polymyxin B 1 µg/mL),bacterial growth OD600 (polymyxin B 0.75 µg/mL)
Cc1c[nH]c(CN(CC2CCN(Cc3ccccc3F)CC2)CC2CCCO2)n1 (centres undefined),0.95,
Cc1nc(C)n(CC(=O)N2CCC3(CC2)CC3C(=O)NCCC2=CCCCC2)n1 (centres undefined),,1.02
O=C(CCc1ccco1)NC1CCCN(CCc2ccccc2)C1 (centres undefined),0.914,
COc1cc(=O)n2c(c1C(=O)NCc1ccc3c(c1)OCO3)CCN(C(=O)C1CC13CCCC3)CC2 (centres undefined),,0.814
CCC1CN(Cc2ccc3c(c2)OCCO3)Cc2cc(OC)ccc2O1 (centres undefined),,0.696
Cc1nc2cc(OCc3cc(C(=O)N4CCN(c5ccccn5)CC4)no3)ccc2s1,0.008,
O=S(=O)(NC1CCCc2nc(-c3ccccc3)ncc21)c1ccsc1 (centres undefined),,0.746
CCN(Cc1ccccc1)C(=O)c1coc(COc2ccc3c(c2)OCO3)n1,0.822,
COC(=O)[C@@H]1CCCN1C(=O)Cc1ccc(N2CCC(NC3Cc4ccccc4C3)CC2)cc1,,0.939

# Quoted at random: 2 records from the list
Structure (SMILES),bacterial growth OD600 (polymyxin B 1 µg/mL),bacterial growth OD600 (polymyxin B 0.75 µg/mL)
O=C(CCc1ccco1)NC1CCCN(CCc2ccccc2)C1 (centres undefined),0.914,
CCC1CN(Cc2ccc3c(c2)OCCO3)Cc2cc(OC)ccc2O1 (centres undefined),,0.696
